Assay results taken from publication PMC5131364, “Pharmacologic modulation of RORγt translates to efficacy in preclinical and translational models of psoriasis and inflammatory arthritis” (Scientific Reports, 2016).
No constants are given. Whether binding was seen depends on the method and setting. Some binding calls cover weakened binding; strength is not graded here.

Sequences of proteins named here, by UniProt entry; tags and fusion partners are left off. Residues count along the entry.
UniProt O75376, residues 1906-2312: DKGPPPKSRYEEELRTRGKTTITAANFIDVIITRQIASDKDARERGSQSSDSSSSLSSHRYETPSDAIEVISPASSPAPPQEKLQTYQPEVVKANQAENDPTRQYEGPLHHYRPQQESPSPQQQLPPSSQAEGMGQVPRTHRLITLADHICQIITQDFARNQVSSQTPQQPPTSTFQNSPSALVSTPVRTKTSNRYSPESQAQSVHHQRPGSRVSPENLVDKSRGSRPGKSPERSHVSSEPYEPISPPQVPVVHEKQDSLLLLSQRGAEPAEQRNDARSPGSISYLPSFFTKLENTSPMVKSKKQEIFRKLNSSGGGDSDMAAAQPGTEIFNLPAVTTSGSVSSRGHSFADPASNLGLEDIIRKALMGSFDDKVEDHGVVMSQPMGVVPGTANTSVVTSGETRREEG

Target: pCMV-BD fused with NCoR (aa1906-2312) (UniProt O75376)
Experiment: two-hybrid; mammalian two-hybrid in HEK293T: pCMV-BD-NCoR (aa1906-2312), pCMV-AD-RORγt, pFR-Luc and pRL-CMV reporters; titrated JNJ-54271074 overnight; luciferase read-out

binding: binds
Substance: NFκB-AD-RORγt fusion protein (from UniProt P51449-2 1-497)
